This is an account of results in patent publication US20130078720, “METHOD FOR INDUCING PLURIPOTENCY IN HUMAN SOMATIC CELLS WITH PRDM14 OR NFRKB” (Agency for Science, Technology and Research, published 2013).

For part of these data: Where cells or extracts were used, other partners may take part. Protein sequences can lack the tags named with them. Construct, isoform or probe ends are uncertain for at least one entry. Negatives hold for the conditions tested.

The target of series [1] is T1, PRDM14 (native, hESC nuclear extract) (Homo sapiens) (UniProt Q9GZV8).
T1 sequence (limits assumed): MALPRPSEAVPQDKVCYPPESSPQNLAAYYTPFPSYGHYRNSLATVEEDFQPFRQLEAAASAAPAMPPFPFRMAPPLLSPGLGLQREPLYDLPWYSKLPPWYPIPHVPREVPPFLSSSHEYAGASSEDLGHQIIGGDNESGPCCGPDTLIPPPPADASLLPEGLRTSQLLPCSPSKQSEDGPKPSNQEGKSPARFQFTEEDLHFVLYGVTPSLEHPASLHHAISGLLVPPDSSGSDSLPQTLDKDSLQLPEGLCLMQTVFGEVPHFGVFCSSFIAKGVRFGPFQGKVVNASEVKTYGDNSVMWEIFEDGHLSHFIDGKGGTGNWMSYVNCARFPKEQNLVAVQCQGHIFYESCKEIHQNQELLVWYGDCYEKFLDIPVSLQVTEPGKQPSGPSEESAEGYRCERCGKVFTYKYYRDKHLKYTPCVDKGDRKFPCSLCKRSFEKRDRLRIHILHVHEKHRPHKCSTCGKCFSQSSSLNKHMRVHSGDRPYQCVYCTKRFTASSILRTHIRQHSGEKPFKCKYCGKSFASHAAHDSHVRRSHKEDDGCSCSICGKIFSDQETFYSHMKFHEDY
Description: EMSA. The note with it: protein in an extract, label: 5' biotin on sense strand. For orientation: In EMSA bound probe runs differently from free probe, usually more slowly.

Series [2] deals with T2, PRDM14 DNA binding domain (C-terminal 179 aa) (Homo sapiens) (UniProt Q9GZV8).
T2 sequence: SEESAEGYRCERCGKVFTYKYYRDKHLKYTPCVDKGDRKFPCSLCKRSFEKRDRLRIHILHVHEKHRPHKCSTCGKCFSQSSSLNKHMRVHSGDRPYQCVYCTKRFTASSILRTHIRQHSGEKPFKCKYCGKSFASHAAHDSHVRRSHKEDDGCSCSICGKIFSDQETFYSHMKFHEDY
Description: EMSA. The settings on record: mutations in motif disrupt complex; purified recombinant protein; protein details: His tag, pET42b, E. coli BL21; label: 5' biotin on sense strand; variant of CR2 probe.

As for “CAGCTCTAACCCTAAACAAGTGCTCAACCCTTGAATGGGCCTGGATGGCT (double strand) [CR2 probe]”, in series [1] (hESC nuclear extract, supershift assay with PRDM14 antibody), the binding result was “binds”.

For the sequence “CATTTTTAACCCTAAACAAGTTTTTAACCCTTGAATGGGCCTGGATGGCT (double strand) [CR2 mutant probe]”, the binding result is “no binding” in series [2] and “no binding” in series [1] (mutations in motif disrupt complex, variant of CR2 probe).
